This assay concerns the target catalytically inactive USP5 C335A (human) (UniProt P45974). Nature of the assay: ITC. For orientation: In ITC the heat of successive injections is recorded.

The chains behind the UniProt entries cited, without tags or fusion partners. Where a name states a change or a piece, a line headed by the entry shows the natural chain unless it says otherwise.
UniProt P45974: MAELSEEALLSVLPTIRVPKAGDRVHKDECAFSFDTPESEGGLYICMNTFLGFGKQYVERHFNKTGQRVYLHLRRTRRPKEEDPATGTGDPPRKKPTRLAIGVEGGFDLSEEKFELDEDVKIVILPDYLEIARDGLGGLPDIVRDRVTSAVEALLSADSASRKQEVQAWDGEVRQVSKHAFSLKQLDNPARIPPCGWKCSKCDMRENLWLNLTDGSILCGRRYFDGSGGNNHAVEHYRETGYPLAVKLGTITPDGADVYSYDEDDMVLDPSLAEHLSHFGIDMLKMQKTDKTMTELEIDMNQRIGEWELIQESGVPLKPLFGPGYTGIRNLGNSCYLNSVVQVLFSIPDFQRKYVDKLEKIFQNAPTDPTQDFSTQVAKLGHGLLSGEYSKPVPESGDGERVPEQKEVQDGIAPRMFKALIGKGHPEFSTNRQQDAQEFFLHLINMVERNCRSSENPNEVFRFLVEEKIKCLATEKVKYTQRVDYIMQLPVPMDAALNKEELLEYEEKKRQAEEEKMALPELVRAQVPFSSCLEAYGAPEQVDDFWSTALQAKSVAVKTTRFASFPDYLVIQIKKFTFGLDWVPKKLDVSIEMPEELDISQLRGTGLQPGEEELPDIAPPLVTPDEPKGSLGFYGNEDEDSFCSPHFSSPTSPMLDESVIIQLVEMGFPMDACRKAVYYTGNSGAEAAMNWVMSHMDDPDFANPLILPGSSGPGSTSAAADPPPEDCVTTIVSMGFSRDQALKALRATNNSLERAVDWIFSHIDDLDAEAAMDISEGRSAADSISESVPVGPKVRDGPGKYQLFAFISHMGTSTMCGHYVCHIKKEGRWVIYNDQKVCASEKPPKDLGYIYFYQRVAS
UniProt Q6IQ49: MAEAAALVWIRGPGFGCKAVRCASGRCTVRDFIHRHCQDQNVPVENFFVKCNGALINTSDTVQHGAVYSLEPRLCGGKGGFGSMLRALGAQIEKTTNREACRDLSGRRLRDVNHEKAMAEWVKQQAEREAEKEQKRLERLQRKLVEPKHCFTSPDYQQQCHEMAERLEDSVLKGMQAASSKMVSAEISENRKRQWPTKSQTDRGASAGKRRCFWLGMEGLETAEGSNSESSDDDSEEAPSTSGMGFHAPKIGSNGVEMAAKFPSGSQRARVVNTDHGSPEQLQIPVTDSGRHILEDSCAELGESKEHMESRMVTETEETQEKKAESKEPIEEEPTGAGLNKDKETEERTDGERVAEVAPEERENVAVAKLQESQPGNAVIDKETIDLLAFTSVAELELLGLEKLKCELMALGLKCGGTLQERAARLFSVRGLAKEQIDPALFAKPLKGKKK

No constants are given. Whether binding was seen depends on the method and setting. Binding calls can cover weak binding; strength is not graded here.

As for “full-length SDE2, SDE2FL(1-451) (from UniProt Q6IQ49)”, the binding result is on record as “binds weakly”.

Values taken from paper doi:10.1101/2025.05.23.655772.
